Laboratory results: article PMC5095350, “Engineered AAA+ proteases reveal principles of proteolysis at the mitochondrial inner membrane” (Nature Communications, 2016)
These are yes or no findings as the source states them, for the method shown.

Biological target: YME1L-AP (human) (UniProt Q96TA2)
Assay: condition: 1 mg of protein in a volume of 200 μl injected; SEC; analytical SEC, Superose 6 Increase 10/300 GL; 1 mg of protein in 200 μl; 50 mM Tris-HCl (pH 8.0), 100 mM NaCl, 0.5 mM TCEP; hexYME1L also with 5 mM EDTA or with ATPγS and MgCl2 (no change in migration); both purified

binding: no binding
B1: YME1L-AP (domain or fragment, UniProt Q96TA2 317-773)
chain: RFRTTTGLDSAVDPVQMKNVTFEHVKGVEEAKQELQEVVEFLKNPQKFTILGGKLPKGILLVGPPGTGKTLLARAVAGEADVPFYYASGSEFDEMFVGVGASRIRNLFREAKANAPCVIFIDELDSVGGKRIESPMHPYSRQTINQLLAEMDGFKPNEGVIIIGATNFPEALDNALIRPGRFDMQVTVPRPDVKGRTEILKWYLNKIKFDQSVDPEIIARGTVGFSGAELENLVNQAALKAAVDGKEMVTMKELEFSKDKILMGPERRSVEIDNKNKTITAYHESGHAIIAYYTKDAMPINKATIMPRGPTLGHVSLLPENDRWNETRAQLLAQMDVSMGGRVAEELIFGTDHITTGASSDFDNATKIAKRMVTKFGMSEKLGVMTYSDTGKLSPETQSAIEQEIRILLRDSYERAKHILKTHAKEHKNLAEALLTYETLDAKEIQIVLEGKKLEVR
